These results are taken from PubChem BioAssay AID1508600 (Functional Genomics Laboratory (NCATS/FGL), 2020).

Out of some 53,000 sequences screened, about 3,700 (7%) were called active.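 How the source made its calls: active means gene knockdowns whose robust z-score for IL-1 alpha signal is at least 2 or at most -2, so actives lie on both sides; inactive means the rest.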 This is one part of the list.

The nature of this assay: Components of the Cytosolic LPS Sensing Pathway: Gene Identification via Genome-wide siRNA Screen.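 Further: robust z of the log signal after scaling to non-targeting control siRNA wells of the plate.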 Conditions: RAW264.7 macrophages, IL-1a HTRF, actives lie on both sides, screened at 100 nM (by protocol), cells primed 5 h with Pam3CSK4 first. The method in brief: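 Cells (RAW264.7, 1×10^4 per well) were transfected with siRNA at 100 nM and cultured 48h at 37 degrees C. Pam3CSK4 was added for 5 hours; LipidA transfection followed for 24 hour. IL-1a was then measured by HTRF.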
A general note: In TR-FRET formats the signal depends on donor and acceptor labels being close together.
For GGCCAUCUUGGACAGCAAGTT against Nt5m, the z-score was inactive: -1.2.

For the sequence CGUUACCAUGAGAGUUAAUTT against Pcdhb19, the z-score is active: 3.83.

GGACGGUGAGAUCUGUUUGTT against Clps: the z-score is inactive: 0.451.

For GGAACUACAUCAUUCAGAATT against Tspyl1, the z-score was inactive: 0.238.

For GCAACUGCCUAGGCUUGAUTT against Slc30a7, the z-score is active: 4.79.

For GGAGAAAGCAGAAAUUGAATT against Mfap1a, the z-score is inactive: -1.31.

As for GCUGGUGUCGGCAAAUCCUTT against Wnk1, the z-score is inactive: -0.62.

As for “GCCUCUGUUCCAUCUUGGATT against F830104G03Rik”, the z-score is inactive: 1.61.

For the sequence GGACAUCAAGAAGGACAAATT against Ppp2r5d, the z-score was inactive: 0.874.

As for GGGAUUAAUAUUUUCCUCUTT against Pttg1ip, the z-score is inactive: -0.42.

Consider GGAGUUCCUCAAACAGGAGTT against Nlrp4a, for which the z-score is inactive: -0.0725.

Take GGUUCUGUUUGUCACAUUCTT against Olfr1234: the z-score was inactive: 0.201.

Regarding CCGUUUUCAUGCAUUGUUGTT against Olfr1377, the z-score was inactive: -0.609.

Consider GGUUGUGAACAGCAUGUACTT against Ccr9, for which the z-score was inactive: -1.78.

On to GAUCAUUCUCUUUUUCCUCTT against Olfr1095, for which the z-score was inactive: -0.435.

For the sequence GCGGGUUAUCCUCUACUACTT against Col15a1, the z-score was inactive: 1.29.

Take GCCUAAACAUUCAAAUCCCTT against Abcc3: the z-score was inactive: -0.5.

On to GGACUGUACAGUGGCAUUATT against Cd70, for which the z-score is inactive: -1.69.

Consider CCCACCUUCAAGCAAGAACTT against Ifnk, for which the z-score was active: -2.51.

For the sequence GGCAGAGGAUCGAGAAAAGTT against Dhrs4, the z-score is inactive: 0.619.

Regarding GGGUUUGGCUCGGUGUAUATT against Mos, the z-score is inactive: -0.929.

For the sequence GGAAUUAUGAUGUAGACAGTT against Garre1, the z-score was inactive: 0.662.

Consider CCAUAAUUCAGCUAGACCUTT against Axin1, for which the z-score was inactive: 0.201.

For CGAACUUUUCAGCAGAUACTT against Rprd1b, the z-score was inactive: -0.798.

GGAACUGACAGAGCUUGAATT against Krtcap3: the z-score is inactive: 0.15.

For GCUGUACCCGAAUGAGUUUTT against Mgat2, the z-score was active: 2.54.

Turning to CCUGUCCUCUGGGCAUAAUTT against Olfr1276, the z-score is inactive: -0.635.

As for GGUCAUGUAUUUCCUCAUCTT against Omp, the z-score is inactive: 0.542.

As to GGAUGUCACUCUUGCAUUGTT against Olfr948, the z-score was inactive: 0.75.

As for CCUACCCAAACCUACUAAATT against Gpt2, the z-score was inactive: -0.168.

As for “GGCAUUGAGAUGAAAUGAATT against 4933427E11Rik”, the z-score was active: -2.5.

For the sequence CGGGAUAUUAGGUUAUUCCTT against Csad, the z-score was inactive: 0.0716.

With GGUUUUGAGAUUGAAAGAATT against Myof, the z-score is inactive: -0.344.

For the sequence CCAGAUUUUUACCAUGAAGTT against Slc2a5, the z-score is inactive: 0.147.

In the case of GGCAGCACUAGGACACAUATT against Tnfaip8l2, the z-score is inactive: 0.0928.

Turning to GGCAGAGUUUCAAUGAGGUTT against Rras, the z-score is inactive: -1.06.

In the case of CGGAGCAAUACAAACUUUATT against Olfr1263, the z-score was inactive: 0.643.

Regarding GCUUCCACAACUCAUAAAUTT against Esd, the z-score was inactive: -0.0597.

As to GCUAAUCAACAAUGUCGCCTT against Atp5b, the z-score is inactive: 0.781.

With GGCUCUUUCAACGUAAAUUTT against Fan1, the z-score is active: -2.72.

Regarding GGAUUUGACACUGCUCCACTT against Arhgef6, the z-score is inactive: 0.0393.

For CCUAAACUCAGUGCCUCAGTT against Mrps36, the z-score is inactive: 0.579.

As for GGUCCUGUAUAAGACAGAATT against Fst, the z-score is inactive: 1.85.

Consider GGCUCAACAAGCUUGUCUATT against Adtrp, for which the z-score is inactive: -0.557.

For GGUCUAUUAUGGCUUAAAGTT against Insl5, the z-score was inactive: -1.93.

On to GGUGUGGUCCUUGCAUCUUTT against Cyp2d34, for which the z-score is inactive: 0.763.

Regarding GGUGAGAUUUGUGGCUUUATT against Clstn1, the z-score is inactive: 0.521.

Turning to CGCCGCAGUAUUAAUGGCUTT against Nxph4, the z-score is inactive: 0.225.

On to GAAACUAGUCCUACUCUUUTT against Defa1, for which the z-score is inactive: 0.6.

Regarding GCUAUGAACCUCUAGGCAUTT against Bcl6b, the z-score is inactive: 0.136.

GCAGGCUUGUUCAAAUCCGTT against Pcm1: the z-score was inactive: 1.1.

On to GCGAGGUGCCAAUAUUUUCTT against Btbd9, for which the z-score was inactive: 2.

On to CGGGUUGUACCUGAGUCUGTT against Tmem120a, for which the z-score is inactive: -0.352.

Regarding CCCAUAGGGCUGAGGAACATT against Zfp53, the z-score was inactive: -0.905.

For the sequence GGCUUUAGCUUACCAGAUGTT against Abcd2, the z-score is inactive: -1.25.

As for “GGAUGGAUCUAAAGACACUTT against 4930544M13Rik”, the z-score was inactive: 1.51.

For CCAUUAACACCUGUUAAUGTT against Lipt2, the z-score was inactive: 0.255.

On to GCUGGCCUUUCUAAAAAAATT against Plekhm1, for which the z-score was inactive: -0.166.

In the case of GGGAUCACAUCUUAAGUAATT against Kbtbd12, the z-score is inactive: 1.5.

As to GGUAUAUCCAUUCCAAAGATT against Osr2, the z-score is inactive: 0.0364.

For the sequence GGUGGCUCAGAAAUCCUAUTT against Rbpjl, the z-score was inactive: -0.206.

Consider GGAAAAGAAUUGUAUACAGTT against Grk4, for which the z-score was inactive: -0.17.

As to GGGACAACCUUACAUCGAUTT against Mpz, the z-score is inactive: 1.6.

As for CCGAUCACUCAUGGUUGACTT against Sra1, the z-score was inactive: 0.565.

Consider GCUCAUCCAGAUAAACCCATT against Smg8, for which the z-score was inactive: -1.94.

Turning to CGCGUUUCGUGUUUCAAAATT against Mus81, the z-score was inactive: -0.464.

With CCGACACAUCAUGUUGACGTT against Zbtb9, the z-score is inactive: -0.269.

As for GGAAAAAGGCAUCAAGUAUTT against Dhfr, the z-score is inactive: -0.0787.

On to CCACUUGCGUGUACCACUUTT against Adtrp, for which the z-score is inactive: 1.92.

Take CCCAAUCUCCAUCUAUGCCTT against Podxl: the z-score is inactive: -0.0416.

As for GGAAUUUUUUCUUGAUGGATT against Tubgcp5, the z-score was inactive: -0.645.

As to GGUGGUCUACAAGACAGUATT against Ces2a, the z-score was inactive: -0.442.

In the case of GGAGUGUUACUAGAUGUCCTT against Spns3, the z-score was inactive: 0.394.

Regarding GGCUGACAAAGAAGAAGCCTT against Dmrta2, the z-score was inactive: -1.26.

Regarding CCCAGUUUAAGCACUUACATT against Lefty2, the z-score was inactive: 0.205.

Consider GGAGCUGUACUCCAAGAAGTT against Oscp1, for which the z-score was inactive: -1.08.

Regarding CCAUCAGGACUCGUGAAUGTT against Fign, the z-score is active: -2.09.

GGCAACACGUUGAUUGUUGTT against Olfr750: the z-score is inactive: 0.282.

Take GGGACAAGAAACUGGCUCUTT against Olfr1339: the z-score was inactive: 0.968.

GGGCAGAAUUACGAAAGUATT against Smc2: the z-score was inactive: -1.73.

In the case of GCACAGUUGCUUUACAUCGTT against Psca, the z-score is inactive: 1.04.

As for GGAGUUGUGUCCCAGAUUGTT against Pkd2l1, the z-score was inactive: 1.84.

In the case of GGUAAUGGUCAAAUUUGAUTT against Ahsg, the z-score was inactive: 0.0813.

As to GCUCCUAAGUAAAAUGGUATT against Ccdc71l, the z-score is inactive: -0.273.

For “GGGUAUUAAGCAGGGAUCGTT against 1810009A15Rik”, the z-score was inactive: 1.11.

Regarding GGAGGGCUCACAUUGUACATT against Nckap5, the z-score is inactive: 0.988.

For the sequence GCAGGUACUAUUUGUGACGTT against Olfr30, the z-score was inactive: 1.07.

In the case of CCAGUGUUUCUCACUAAAUTT against Ube2j1, the z-score was inactive: 0.873.

Consider GGAAAACAAUCUCCUUCAATT against Olfr1260, for which the z-score is inactive: 1.42.

GGAGAACAUUGUUAUCUCGTT against Ngef: the z-score is inactive: 0.988.

GGUCAAAACUUCCAAUUGATT against Hmx3: the z-score is inactive: -0.578.

Regarding GGCACUAAAGCCAAAGUUCTT against Cldn11, the z-score is inactive: -0.616.

Take GGGAGCAACAGAGAGCUUUTT against Olfr212: the z-score was inactive: 1.18.

For CCAGAAUACUGGGAUACAATT against B4galnt3, the z-score was inactive: -0.577.

GGAAAACUCCUCCUUAAUUTT against Wsb1: the z-score is inactive: 0.727.

Consider GGAAGACCUGAUUGGAAAATT against Trpm1, for which the z-score was inactive: 0.372.

As for GGGACAUGAAGGACACCAUTT against Olfr854, the z-score was inactive: -0.75.

In the case of GGAAGAUGUGAUUUAUGACTT against Arhgef10l, the z-score is inactive: -1.84.

For GGACCUUAAGAAAACAAUGTT against Xiap, the z-score is inactive: 0.712.

On to GGCGAACCUCUUCUCUGGATT against Glcci1, for which the z-score is inactive: 0.408.

CGAGCCCAUGUCAGAUCAGTT against Minar1: the z-score was active: -2.33.

GGAGGAGAAAACAGGAAUUTT against H2-Eb1: the z-score was inactive: -0.03.

As to GGGCAGAUCCUAAUAAGCATT against Irs3, the z-score is inactive: -1.21.

For the sequence GAAUAAAUCAGACCACAAATT against Aamdc, the z-score is inactive: -0.786.

In the case of GGGUAUUUUGACAAUUUGGTT against Lrig3, the z-score was inactive: -0.576.

For GCAACAUCAGGUAACCUUUTT against Zfp526, the z-score is inactive: 1.43.

With GGAGCAGAUGGUCCAUUGUTT against Ly6g5c, the z-score was inactive: 0.434.
